Among the data in publication PMC7667687 are binding values, retold here.

The chains behind the UniProt entries cited, without tags or fusion partners. Residues count along the entry.
UniProt Q9NZQ7, residues 19-290: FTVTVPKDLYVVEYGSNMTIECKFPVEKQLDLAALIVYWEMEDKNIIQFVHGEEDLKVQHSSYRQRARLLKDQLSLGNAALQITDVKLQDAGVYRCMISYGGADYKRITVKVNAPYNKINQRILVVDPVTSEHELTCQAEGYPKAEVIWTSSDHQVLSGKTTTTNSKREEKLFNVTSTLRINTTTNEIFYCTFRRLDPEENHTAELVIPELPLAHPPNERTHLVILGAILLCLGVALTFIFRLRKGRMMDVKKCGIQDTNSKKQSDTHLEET

No constants are given. Whether binding was seen depends on the method and setting. Binding seen in cells or lysates may run through a third protein. A yes stands for co-enrichment or nearness to the bait. Other partners may have been found.

The assay concerns the target programmed cell death ligand 1 (PD-L1) (human (endogenous in SGC-7901)) (UniProt Q9NZQ7). Nature of the assay: affinity purification with mass spectrometry; IP with anti-PD-L1 antibody (IgG as control) from SGC-7901 RIPA lysate, protein A/G PLUS-Agarose, 4°C; coprecipitated 175 kDa protein band analysed by mass spectrometry.

B1: CCCTC-binding factor (CTCF) (protein, UniProt P49711 1-727)
chain: MEGDAVEAIVEESETFIKGKERKTYQRRREGGQEEDACHLPQNQTDGGEVVQDVNSSVQMVMMEQLDPTLLQMKTEVMEGTVAPEAEAAVDDTQIITLQVVNMEEQPINIGELQLVQVPVPVTVPVATTSVEELQGAYENEVSKEGLAESEPMICHTLPLPEGFQVVKVGANGEVETLEQGELPPQEDPSWQKDPDYQPPAKKTKKTKKSKLRYTEEGKDVDVSVYDFEEEQQEGLLSEVNAEKVVGNMKPPKPTKIKKKGVKKTFQCELCSYTCPRRSNLDRHMKSHTDERPHKCHLCGRAFRTVTLLRNHLNTHTGTRPHKCPDCDMAFVTSGELVRHRRYKHTHEKPFKCSMCDYASVEVSKLKRHIRSHTGERPFQCSLCSYASRDTYKLKRHMRTHSGEKPYECYICHARFTQSGTMKMHILQKHTENVAKFHCPHCDTVIARKSDLGVHLRKQHSYIEQGKKCRYCDAVFHERYALIQHQKSHKNEKRFKCDQCDYACRQERHMIMHKRTHTGEKPYACSHCDKTFRQKQLLDMHFKRYHDPNFVPAAFVCSKCGKTFTRRNTMARHADNCAGPDGVEGENGGETKKSKRGRKRKMRSKKEDSSDSENAEPDLDDNEDEEEPAVEIEPEPEPQPVTPAPPPAKKRRGRPPGRTNQPKQNQPTAIIQVEDQNTGAIENIIVEVKKEPDAEPAEGEEEEAQPAATDAPNGDLTPEMILSMMDR
With B1, the binding entry was “binds”.
